According to article PMC8880919:
No constants are given. Whether binding was seen depends on the method and setting. Binding seen in cells or lysates may run through a third protein. Some entries that bind do so weakly or less than the wild type.

Biological target: T1, Spt3 (S. pombe) (UniProt O14311)
T1 sequence: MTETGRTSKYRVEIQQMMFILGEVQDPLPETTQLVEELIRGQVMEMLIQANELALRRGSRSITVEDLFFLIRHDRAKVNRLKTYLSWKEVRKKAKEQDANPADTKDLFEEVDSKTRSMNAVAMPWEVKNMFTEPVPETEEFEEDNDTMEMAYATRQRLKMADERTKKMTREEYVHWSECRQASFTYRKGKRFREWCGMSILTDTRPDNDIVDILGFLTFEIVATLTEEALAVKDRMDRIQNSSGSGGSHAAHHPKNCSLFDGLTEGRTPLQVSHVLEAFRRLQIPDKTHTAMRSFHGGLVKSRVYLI
Assay: co-IP; protein extracts of wild type S. pombe cells expressing chromosomally tagged proteins; 500 ug protein, IP with anti-MYC or anti-FLAG overnight at 4 C, protein A/G sepharose; lysis buffer PBS pH 7.0, 200 mM NaCl, 0.5 mM EGTA, 0.5 mM EDTA, 0.1% Triton X100; five washes at 220 mM NaCl; blots with anti-HA, anti-FLAG or anti-MYC

B1: Gad8 (protein, UniProt Q9P7J8 1-569)
chain: MSWKLTKKLKETHLASAIGLNSGGSSFTRGLKNSTLSSTSSRKSSDEKSRKSSEDKRSPQSTVVQPGLLQVTIIEARNLKLPSGHVPANYGVSIDNSLLAPPLSNGSGHARSRSHAWWLPYIVVEFDKNEILVDALNTASLENPCWDYQATFDVSRYSKLSLNIYLRSSSSRSRNGMGNDAFLGGIKLSPSFIVNKLTDEWVPLHGGSGELRVQMLYKPNQSTPLTIDAFELLKVVGKGSFGKVMQVRKRDTSRIYALKTMKKAHIVSRSEVDHTLAERTVLAQVNNPFIVPLKFSFQSPGKLYLVLAFVNGGELFHHLQREGCFDTYRAKFYIAELLVALECLHEFNVIYRDLKPENILLDYTGHIALCDFGLCKLNMAKTDRTNTFCGTPEYLAPELLLGHGYTKVVDWWTLGVLLYEMITGLPPFYDENINEMYRKILQDPLRFPDNIDEKAKDLLSGLLTRAPEKRLGSGGAQEIKNHPFFDDIDWKKLCAKKIQPPFKPSVESAIDTSNFDSEFTSEIPMDSVVADSHLSETVQQRFANWSYQRPTTIDTSDDINTIAPGSVIR
**Q.** With B1 as the binder, how does the binding read?
**A.** The binding was “binds”.
